# Values of other authors in US5840712A, “Water soluble vitamin B12 receptor modulating agents and methods related thereto” (Receptagen Corporation, priority 1995, dated 1998).
# Details: J. Pharmacol. Exp. Ther. 255:867-74, 1990; Ren. Fail. 14:351-7, 1992
substance,measurement,value
gentamycin,concentration in lysosomes relative to the extracellular concentration,≤ 300 fold
